# In PubChem BioAssay AID493014 (National Center for Advancing Translational Sciences (NCATS), 2011):
# The whole screen tested about 340,000 compounds, of which about 170 (0.05%) were called active. Inconclusive means that the source gave no clear call. Such entries were picked first, then a sample of the others. Calls come from the whole dose curve; as a rule, active = well fitted inhibition curve with a large enough effect in the signal ratio, with a control signal flat (not every such curve was filed as active); inconclusive = small, poorly fitted or top-dose-only effect, or effect the other way, or a change in a side signal; inactive = flat fitted curve, though single readings scatter; the % refers to the signal ratio. Potencies beside an inconclusive call are fits to weak or partial responses and may not hold up.
# Experiment: qHTS Assay to Find Inhibitors of Chronic Active B-Cell Receptor Signaling;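 for activity change, negative = inhibition: plate controls were basal doxycycline-induced cells for no effect and cells given 10 µM MG132 for full effect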
# Details: ABC-DLBCL IkBa-CBG/CBR reporter, luminescence ratio (green luciferase fused to IkBa over red control in TMD8 lymphoma cells), 4 h; activity change, negative = inhibition: at 46.1 µM (top of the series) unless noted
# Procedure, shortened: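 TMD8 ABC-DLBCL cells carrying doxycycline-inducible green luciferase fused to IkappaBalpha plus unfused red luciferase were exposed to compounds (up to 46 uM) for 4 hrs at 37C. Activity came from the overlap-corrected green/red luminescence ratio.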
# Potency is the fitted concentration of half-maximal effect.
Structure (SMILES),"activity change, negative = inhibition",Potency
N#C/C(=C\c1ccc2c(c1)OCCO2)C(=O)Nc1nccs1,inconclusive: 0.784%,–
Cc1ccc(S(=O)(=O)NCCC(=O)N2CCOCC2)cc1C,inactive: -0.952%,–
COc1cc(NC(=O)c2cc(C(C)C)on2)c(OC)cc1Cl,inactive: 5.69%,–
C/C(=N\NC(=S)Nc1c(C)cccc1C)c1cc2ccccc2o1,inconclusive: -2.5%,–
Cc1ccc(SCc2c(-c3ccccc3)nn(C)c2Cl)cc1,–,"inconclusive: 8.2 µM [rising, partial curve, poor fit]"
COc1ccc(Cl)cc1NC(=O)NCc1cccnc1,inconclusive: 1.31%,–
O=C(CCC1N=C2c3ccccc3N=C(SCC(=O)NCC3CCCO3)N2C1=O)NCc1ccc(F)cc1 (stereo not drawn),inconclusive: 3.21%,–
CCn1c(SCC(=O)Nc2oc(-c3ccccc3)c(-c3ccccc3)c2C#N)nnc1-c1ccco1,inconclusive: 23.9%,–
CN(C)CCCNc1nc(N)c([N+](=O)[O-])c(NCc2ccccc2)n1,inconclusive: -10.9%,–
CN(C)CCCN(C(=O)c1cc(Cl)sc1Cl)c1nc2cc3c(cc2s1)OCO3,–,"inconclusive: 14.1 µM [falling, partial curve, poor fit]"
O=C(COc1ccc2ccccc2c1)NCCNC(=O)COc1ccc2ccccc2c1,inconclusive: -7.41%,–
CC(C)C(O)C1CCN(Cc2nc(-c3cccs3)no2)CC1 (stereo not drawn),–,"inconclusive: 11.2 µM [falling, partial curve]"
CCN(CC(=O)Nc1ccc(NC(C)=O)cc1)C(=O)c1sc2nc3n(c(=O)c2c1C)CCC3,inconclusive: 4.96%,–
O=C(N/N=C/c1ccc(O)cc1)c1cc(-c2ccccc2)nc2ccccc12,inconclusive: -7.2%,–
CCC(C)(C)n1nnnc1C(c1ccc(C)cc1)N(Cc1ccco1)Cc1cccs1 (stereo not drawn),–,"inconclusive: 36.6 µM [rising, partial curve, poor fit]"
Cc1ccc(N(O)C(=O)NCCCCNC(=O)N(O)c2ccc(C)cc2)cc1,inactive: -3.71%,–
Cc1nn(CC(=O)NCc2cccc3ccccc23)c(=O)c2ccccc12,inconclusive: -0.203%,–
O=C(Nc1ccc(Cl)c(S(=O)(=O)N2CCOCC2)c1)c1ccc2c(c1)OCCO2,inconclusive: 3.5%,–
CCc1ccc(C(=O)Cn2ncc(Cl)c(Cl)c2=O)cc1,inconclusive: -16.4%,–
Cc1nnsc1-c1nc2ccccc2[nH]1,inconclusive: -3.98%,–
COc1cc(OC)cc(C(=O)Nc2nc(CC(=O)NC(C)c3ccccc3)cs2)c1 (stereo not drawn),inconclusive: -6.37%,–
CC(=O)Nc1cc(-n2cnnn2)ccc1C,inconclusive: -10.2%,–
CC(=O)C1=C(c2ccc(C)c(C)c2)N(C(C)=O)n2c(nnc2-c2ccc(Cl)cc2)S1,–,"inconclusive: 6.31 µM [falling, single point]"
O=C(O)c1cc(NCc2ccccc2C(F)(F)F)ccc1N1CCOCC1,inconclusive: -19%,–
CCCCCCSc1nsc(NC(=O)CC(C)C)n1,inconclusive: -0.82%,–
Cc1ccc(C)c(-c2cc(C(=O)NCc3cccs3)c3ccccc3n2)c1,inconclusive: 1.29%,–
O=C(O)CSc1cc(NS(=O)(=O)c2ccc(Br)cc2)c2ccccc2c1O,–,"inconclusive: 17.8 µM [falling, single point]"

Structure (SMILES),"activity change, negative = inhibition",Potency
Cc1ccccc1NC(=O)Cn1c(C)nc2ccc(N)cc2c1=O,inactive: -14.7%,–
COc1ccc(OCC(=O)OCC(=O)c2ccc(OC)c(F)c2)cc1,inactive: 3.2%,–
O=C(COC(=O)c1cccc(N2C(=O)c3ccccc3C2=O)c1)Nc1ccccc1,inactive: 4.88%,–
O=[N+]([O-])c1ccc(NCCN2CCOCC2)c([N+](=O)[O-])c1,inconclusive: 0.371%,–
CCOC(=O)Cc1csc(NC(=O)c2ccc(F)cc2)n1,inconclusive: -8.86%,–
COc1ccc(N2CC(NC(=O)CCCc3ccccc3)CC2=O)cc1 (stereo not drawn),inactive: -6.43%,–
CCOC(=O)c1ccccc1N=Cc1c(O)c2ccccc2oc1=O,–,"inconclusive: 2.24 µM [falling, full curve, poor fit]"
CCN(CC(=O)NCc1cccs1)C(=O)c1cccc(S(=O)(=O)N2CC(C)OC(C)C2)c1 (stereo not drawn),inactive: -5.54%,–
O=C(Cc1ccc(F)cc1)N[C@@H]1c2ccccc2CC[C@@H]1OCc1ccccc1,inactive: -0.989%,–
Cc1oc2ccc(OCc3ccc(F)cc3Cl)cc2c1C(=O)O,inconclusive: 9.44%,–
O=C(Nc1ncc2c(n1)-c1ccccc1OC2)c1ccc(F)cc1,–,"inconclusive: 20 µM [falling, partial curve]"
O=C(c1ccccc1)c1ccc2nc(-c3ccc(NC(=O)c4ccccc4F)cc3)[nH]c2c1,inactive: 8.28%,–
Cc1c(C(=N)C(C#N)C#N)c(=N)oc2c1ccc1ccccc12,inconclusive: 14.3%,–
CCCCOc1ccc(C(=O)NCC2(c3ccc(OC)cc3)CCOCC2)cc1,inconclusive: -3.53%,–
CCN(c1ccccc1)S(=O)(=O)c1ccc(Cl)c(NC(=O)CNCc2ccccc2OC)c1,inactive: -7.35%,–
C=CCn1c(SCc2cc(=O)n3ccsc3n2)nc2scc(C3CC3)c2c1=O,inconclusive: -1.48%,–
COc1ccc(NC(=O)c2noc(C(C)C)c2[N+](=O)[O-])cc1,inconclusive: 3.76%,–
CCCCC(=O)Nc1ccc(C(=O)Nc2ccc(S(=O)(=O)Nc3nccc(C)n3)cc2)cc1,inactive: 3.6%,–
CN(C)CCCN1c2ccccc2CCc2ccc(Cl)cc21,–,"inconclusive: 23.1 µM [falling, single point]"
COc1ccc(C2/C=C\CN(C(=O)c3ccccc3)CC(=O)N2Cc2cccc(F)c2)cc1 (stereo not drawn),inconclusive: -5.33%,–
O=[N+]([O-])c1cnccc1Nc1ccccc1,inconclusive: 2.77%,–
O=C(NCc1ccccn1)Nc1cc(Cl)ccc1Cl,inconclusive: 15.2%,–
c1ccc2cc3[nH]c(CN4CCCCC4)nc3cc2c1,–,"inconclusive: 14.6 µM [falling, single point]"
COC(=O)c1cccc(Nc2cc(C)nc(-c3ccccc3O)n2)c1,inconclusive: 13.4%,–
O=[N+]([O-])c1ccc(Cc2nnc(-c3ccccc3Cl)o2)cc1,–,"inconclusive: 7.08 µM [falling, partial curve]"
COc1ccc(/C=N/NC(=O)c2cccc(NC(=O)c3ccccc3Cl)c2)c(OC)c1,–,"inconclusive: 11.2 µM [falling, partial curve]"

# Looked up above.
# CCOC(=O)c1ccccc1N=Cc1c(O)c2ccccc2oc1=O – Potency: inconclusive: 2.24 µM [falling, full curve, poor fit]
# COc1ccc(N2CC(NC(=O)CCCc3ccccc3)CC2=O)cc1 (stereo not drawn) – activity change, negative = inhibition: inactive: -6.43%
# CCN(CC(=O)NCc1cccs1)C(=O)c1cccc(S(=O)(=O)N2CC(C)OC(C)C2)c1 (stereo not drawn) – activity change, negative = inhibition: inactive: -5.54%
# COc1cc(NC(=O)c2cc(C(C)C)on2)c(OC)cc1Cl – activity change, negative = inhibition: inactive: 5.69%
